Measurements as given in PubChem BioAssay AID1439 (NMMLSC, 2008).
The campaign covered roughly 220,000 compounds. About 770 (0.35%) were called active. The inconclusive results got no clear call from the source; some entries with a clear call stand among them for comparison. No stated cut-off is given here; in the data, active means binding response below about 49% or above about 150%; inconclusive means no clear call, values can overlap the other calls; inactive means in between.

Sequences of proteins named here, by UniProt entry; tags and fusion partners are left off.
UniProt P09471, whole entry, looked up: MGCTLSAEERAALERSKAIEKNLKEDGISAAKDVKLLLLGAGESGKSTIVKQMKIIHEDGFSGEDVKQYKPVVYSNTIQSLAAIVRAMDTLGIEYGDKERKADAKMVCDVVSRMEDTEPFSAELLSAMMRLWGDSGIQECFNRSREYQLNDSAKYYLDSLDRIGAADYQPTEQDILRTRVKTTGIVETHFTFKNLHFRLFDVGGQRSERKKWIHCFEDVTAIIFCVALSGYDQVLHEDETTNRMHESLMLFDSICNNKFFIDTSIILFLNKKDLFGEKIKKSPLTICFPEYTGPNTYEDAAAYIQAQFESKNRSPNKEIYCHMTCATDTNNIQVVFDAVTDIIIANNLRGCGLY

What follows are molecules tested against Guanine nucleotide-binding protein G(o) subunit alpha (Homo sapiens) (UniProt P09471) (assay: RGS7-Galphao binding modulators, primary screen, biochemical, multiplexed bead flow cytometry (AID 1439;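 further: fluorescent Galphao held in activated GDP-AlF4 state binding bead-coupled RGS7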)). Conditions: at 10 µM, actives lie on both sides.

Row | Compound | binding response (% of control)
1 | CC1(c2ccccc2)NC(=O)N(CC#N)C1=O (stereo not given) | inactive: 101%
2 | COc1ccc(-c2ccnc3c(C(=O)O)cnn23)cc1 | inactive: 107%
3 | N#Cc1cnn2ccn(C3OC(CO)C(O)C3O)c12 (stereo not given) | inconclusive: 53.1%
4 | S=C(NCCc1ccccn1)Nc1cc(Cl)cc(Cl)c1 | inconclusive: -276%
5 | CC(=O)c1ccc(-c2ccc([C@H]3[C@H]4C=CC[C@@H](C)[C@@H]4C(=O)N3Cc3ccccc3)c(F)c2)cc1 | inconclusive: 96%
6 | O=C(CSc1nnnn1Cc1ccccc1)NC1CCCCC1 | inconclusive: 113%
7 | Cc1ccc(NC(=S)/N=C(\N)Nc2nc(C)c3cc(C)c(C)cc3n2)cc1C | inactive: 100%
8 | COc1ccccc1CNC(=O)C(=O)NCC1OCCN1C(=O)c1ccc(Cl)cc1 (stereo not given) | inconclusive: 33.9%
9 | COc1ccccc1NS(=O)(=O)c1cccc(C(=O)NCc2ccco2)c1 | inactive: 97.3%
10 | NS(=O)(=O)c1ccc(NC(=O)COC(=O)c2ccc(Cl)nc2)cc1 | inconclusive: 108%
11 | CCOC(=O)N1CCN(C2CC(=O)N(c3ccc(C)cc3)C2=O)CC1 (stereo not given) | inactive: 95.8%
12 | CCOCCCn1c(C)nc2c(c1=O)c1nc3ccccc3nc1n2-c1ccc2c(c1)OCCO2 | inconclusive: 186%
13 | Cc1noc(C)c1C(=O)Nc1nnc(CC(C)C)s1 | inconclusive: 161%
14 | COc1ccc(C2NC(C(=O)O)Cc3c2[nH]c2ccccc32)cc1CN1CCN(c2ccc(F)cc2)CC1 (stereo not given) | inconclusive: 129%
15 | COc1ccc(OCC(O)CNC(=O)Nc2ccc(F)cc2)cc1 (stereo not given) | inconclusive: 123%
16 | Cc1ccnn1Cc1cc(C(=O)O)c2ccccc2n1 | inconclusive: 104%
17 | Cc1ccc(NC(=O)c2ccc3c(c2)S(=O)(=O)c2ccccc2C3=O)cc1S(=O)(=O)N1CCOCC1 | inconclusive: 109%
18 | NC(=O)CSc1nccn1Cc1ccc(Cl)cc1 | inconclusive: 81.4%
19 | CC(C)c1ccc(C(O)P(=O)(OC2CCCCC2)OC2CCCCC2)cc1 (stereo not given) | inconclusive: 378%
20 | Cc1ccc(NC(=O)C(C)N2C(=O)c3ccccc3C2=O)nc1 (stereo not given) | inconclusive: 94.1%
21 | COc1ccc(C(=O)NNC(=O)c2cc3cc(OC)ccc3oc2=O)cc1 | inconclusive: 117%
22 | c1ccc2c(-c3nc4ncccc4o3)cccc2c1 | inactive: 96.8%
23 | CC(=O)c1cccc(CN2CCN(CC(C)C)C(CCO)C2)c1 (stereo not given) | inactive: 106%

4 entries from above, set out differently.
Row	Compound	binding response (% of control)
9	COc1ccccc1NS(=O)(=O)c1cccc(C(=O)NCc2ccco2)c1	inactive: 97.3%
10	NS(=O)(=O)c1ccc(NC(=O)COC(=O)c2ccc(Cl)nc2)cc1	inconclusive: 108%
11	CCOC(=O)N1CCN(C2CC(=O)N(c3ccc(C)cc3)C2=O)CC1 (stereo not given)	inactive: 95.8%
12	CCOCCCn1c(C)nc2c(c1=O)c1nc3ccccc3nc1n2-c1ccc2c(c1)OCCO2	inconclusive: 186%

(list continues)

Row | Compound | binding response (% of control)
24 | O=S(=O)(Nc1nc2ccccc2nc1-[n+]1cccc(N=C([O-])c2ccc(Cl)cc2)c1)c1ccccc1 | inconclusive: 104%
25 | COc1ccc(Oc2ccc(-c3ccn[nH]3)cc2)cc1 | inconclusive: 47.6%
26 | O=C(Cn1cnc2ccccc2c1=O)Nc1ccc(S(=O)(=O)N2CCOCC2)cc1 | inconclusive: 88.9%
27 | CN1C2CCC1CC(OC(c1ccccc1)c1ccccc1)C2 (stereo not given) | inconclusive: 92.9%
28 | CSCCC(NS(=O)(=O)/C=C/c1ccccc1)C(=O)O (stereo not given) | inactive: 103%
29 | CCOP(=O)(c1ccccc1)c1nc(-c2ccccc2C)oc1NCc1ccccc1 (stereo not given) | inconclusive: 104%
30 | Cc1ccc(-c2cc(C(=O)Nc3ccc(S(=O)(=O)Nc4onc(C)c4C)cc3)[nH]n2)c(O)c1 | inconclusive: 67.6%
31 | O=C(O)c1cccc(-n2cccc2/C=C/[N+](=O)[O-])c1 | inconclusive: 96.8%
32 | CN(C)S(=O)(=O)c1cccc(NC(=O)c2cnccn2)c1 | inconclusive: 114%
33 | Cc1ccc(NC(=O)C(Nc2cccc(C)c2)c2ccccc2)cc1 (stereo not given) | inactive: 96.1%
34 | O=C(CSc1n[nH]c(=O)n1Cc1ccco1)N1CCOCC1 | inconclusive: 80.2%
35 | Cc1cc(-c2onc(C)c2C(=O)Oc2ccc(Cl)cc2)no1 | inconclusive: 117%
36 | O=C(NCc1cccnc1)Nc1ccc2c(c1)OCO2 | inconclusive: 105%
37 | CCOC(=O)c1cc(-c2ccccc2)nn1CCC#N | inconclusive: 111%
38 | CC1(C)Cc2nc3oc4c(SCC(N)=O)ncnc4c3cc2CO1 | inconclusive: 129%
39 | CCOc1ccc(C(C)NC(=S)NCc2ccc(Cl)cc2)cc1 (stereo not given) | inactive: 106%
40 | CCN1CC=C2C(C#N)=C(N)C(C#N)(C#N)C(CCc3ccccc3)C2C1 (stereo not given) | inactive: 101%
41 | CSc1nnc(NC(=O)c2ccc(C)c(S(=O)(=O)N3CCOCC3)c2)s1 | active: 13.6%
42 | C/C(=N\NC(=O)c1ccc2c(c1)OCO2)c1ccc(O)cc1 | inconclusive: -57.2%
43 | COc1ccc(NC(=O)CSc2nc(C)cs2)c(OC)c1 | inactive: 98.1%
44 | Cc1ccc(NC(=O)COC(=O)C2CC(=O)N(Cc3ccccc3)C2)cc1S(=O)(=O)N(C)C (stereo not given) | inconclusive: 113%
45 | CN(c1cccc(NC(=O)CN(c2cccc(F)c2)S(C)(=O)=O)c1)S(C)(=O)=O | inconclusive: 105%
